Test results: article PMC9377798
Results are given in words; binding and its absence hold for the method and conditions named. In cells and extracts the contact can be indirect. Some entries that bind do so weakly or less than the wild type.

Chains of the proteins cited; added tags and fusions are not shown.
UniProt Q99LZ3: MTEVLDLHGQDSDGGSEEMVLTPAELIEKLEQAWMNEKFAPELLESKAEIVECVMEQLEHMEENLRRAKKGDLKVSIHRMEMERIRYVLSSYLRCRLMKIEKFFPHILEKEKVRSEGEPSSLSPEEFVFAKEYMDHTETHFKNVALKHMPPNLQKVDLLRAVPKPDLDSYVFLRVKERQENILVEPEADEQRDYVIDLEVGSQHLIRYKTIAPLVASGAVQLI
UniProt Q61881: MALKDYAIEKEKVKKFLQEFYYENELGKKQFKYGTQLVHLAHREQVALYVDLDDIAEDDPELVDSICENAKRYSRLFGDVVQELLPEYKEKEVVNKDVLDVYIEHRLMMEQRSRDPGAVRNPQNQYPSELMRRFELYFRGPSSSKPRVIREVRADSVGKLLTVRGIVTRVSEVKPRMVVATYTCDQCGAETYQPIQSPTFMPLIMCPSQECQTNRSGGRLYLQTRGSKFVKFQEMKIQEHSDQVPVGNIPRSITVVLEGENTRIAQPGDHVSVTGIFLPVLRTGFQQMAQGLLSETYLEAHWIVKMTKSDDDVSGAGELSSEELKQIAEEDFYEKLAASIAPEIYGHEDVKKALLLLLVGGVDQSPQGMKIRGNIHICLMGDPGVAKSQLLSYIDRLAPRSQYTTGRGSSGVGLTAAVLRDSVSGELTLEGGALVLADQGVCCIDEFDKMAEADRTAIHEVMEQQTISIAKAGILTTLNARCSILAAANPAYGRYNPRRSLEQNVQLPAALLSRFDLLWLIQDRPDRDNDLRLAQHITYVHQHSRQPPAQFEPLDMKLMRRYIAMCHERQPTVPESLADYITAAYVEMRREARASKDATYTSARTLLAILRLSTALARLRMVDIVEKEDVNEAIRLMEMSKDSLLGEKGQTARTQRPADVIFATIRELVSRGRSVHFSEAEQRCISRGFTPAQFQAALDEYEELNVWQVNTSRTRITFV

Biological target: GFP-tagged GINS4/SLD5 (mouse) (mouse (endogenous in ES cells)) (UniProt Q99LZ3)
Experiment: co-IP; GFP-Trap agarose on extracts of mouse ES cells expressing GFP-SLD5 (control, FAF1∆, UBXN7∆, FAF1∆ UBXN7∆; with or without 5 µM CB-5083 for 3 hr); immunoblot

## ubiquitylated CMG-MCM7 (mouse) (from UniProt Q61881 1-719)
  binding: binds
